Paper PMC6695400, “Diversity of oligomerization in Drosophila semaphorins suggests a mechanism of functional fine-tuning” (Nature Communications, 2019)
These are yes or no findings as the source states them, for the method shown. In cells and extracts the contact can be indirect. Tags and fused reporters may be left off the sequences shown.

Molecular target: Drosophila melanogaster semaphorin-1a full-length ectodomain (Sema1a_(ecto)) (Drosophila melanogaster)
Test: pull-down; HEK293T co-transfected with a His6-tagged and a TwinStrep-tagged semaphorin; conditioned medium 5 days post transfection; two-step affinity chromatography (HisTrap, then StrepTactin); western blot and SDS-PAGE of flow-through and eluate

B1: Drosophila melanogaster full-length secreted semaphorin-2a (Sema2a_(full)) (ligand, UniProt Q24323 26-724, looked up)
chain: DYENTWNFYYERPCCTGNDQGNNNYGKHGADHVREFNCGKLYYRTFHMNEDRDTLYVGAMDRVFRVNLQNISSSNCNRDVINLEPTRDDVVSCVSKGKSQIFDCKNHVRVIQSMDQGDRLYVCGTNAHNPKDYVIYANLTHLPRSEYVIGVGLGIAKCPYDPLDNSTAIYVENGNPGGLPGLYSGTNAEFTKADTVIFRTDLYNTSAKRLEYKFKRTLKYDSKWLDKPNFVGSFDIGEYVYFFFRETAVEYINCGKAVYSRIARVCKKDVGGKNLLAHNWATYLKARLNCSISGEFPFYFNEIQSVYQLPSDKSRFFATFTTSTNGLIGSAVCSFHINEIQAAFNGKFKEQSSSNSAWLPVLNSRVPEPRPGTCVNDTSNLPDTVLNFIRSHPLMDKAVNHEHNNPVYYKRDLVFTKLVVDKIRIDILNQEYIVYYVGTNLGRIYKIVQYYRNGESLSKLLDIFEVAPNEAIQVMEISQTRKSLYIGTDHRIKQIDLAMCNRRYDNCFRCVRDPYCGWDKEANTCRPYELDLLQDVANETSDICDSSVLKKKIVVTYGQSVHLGCFVKIPEVLKNEQVTWYHHSKDKGRYEIRYSPTKYIETTERGLVVVSVNEADGGRYDCHLGGSLLCSYNITVDAHRCTPPNKSNDYQKIYSDWCHEFEKYKTAMKSWEKKQAQCSTRQNFSSNQHPNEIFRKPNV
notes: Semaphorin-2a, Drosophila melanogaster, residues 26D-724V; Disulfide-linked dimer in solution; source: HEK293T (37 °C), transient transfection, purified (HisTrap, SEC)
In the case of B1, the binding is reported as “no binding”.
